Results are given in words; binding and its absence hold for the method and conditions named. In cells and extracts the contact can be indirect. Some results given as binding are weak or reduced against the parent protein; the word gives no strength.
Target: T1, Islet-1 (ISL1), endogenous in MGC803 cells (human (endogenous in MGC803)) (UniProt P61371)
T1 sequence: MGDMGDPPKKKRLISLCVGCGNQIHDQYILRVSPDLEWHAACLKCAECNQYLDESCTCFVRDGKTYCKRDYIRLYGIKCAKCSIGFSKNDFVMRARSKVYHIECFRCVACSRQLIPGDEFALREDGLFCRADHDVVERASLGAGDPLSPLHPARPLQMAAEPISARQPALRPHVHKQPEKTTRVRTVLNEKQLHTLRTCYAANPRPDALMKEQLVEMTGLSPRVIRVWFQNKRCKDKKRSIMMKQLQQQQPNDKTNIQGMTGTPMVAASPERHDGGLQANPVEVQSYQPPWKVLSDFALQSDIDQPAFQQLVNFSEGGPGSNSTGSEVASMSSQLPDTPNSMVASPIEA
Assay: co-IP; endogenous proteins; MGC803 lysate (RIPA lysis buffer with protease inhibitors) immunoprecipitated with antibodies against ISL1, CDK1 or cyclinB1, immunoblotting; IgG as control

The chains behind the UniProt entries cited, without tags or fusion partners.
UniProt P14635: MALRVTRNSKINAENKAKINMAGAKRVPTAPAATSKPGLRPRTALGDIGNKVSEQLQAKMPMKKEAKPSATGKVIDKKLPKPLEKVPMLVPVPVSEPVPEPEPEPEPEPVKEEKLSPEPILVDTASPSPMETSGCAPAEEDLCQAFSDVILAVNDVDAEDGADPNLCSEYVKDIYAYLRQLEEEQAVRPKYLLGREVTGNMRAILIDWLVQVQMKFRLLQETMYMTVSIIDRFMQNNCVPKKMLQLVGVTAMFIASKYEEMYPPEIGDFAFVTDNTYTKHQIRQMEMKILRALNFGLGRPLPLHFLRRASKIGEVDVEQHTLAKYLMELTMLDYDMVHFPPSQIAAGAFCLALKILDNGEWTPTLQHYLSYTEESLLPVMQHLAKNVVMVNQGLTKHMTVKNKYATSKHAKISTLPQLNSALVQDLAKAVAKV

In the case of “cyclin B1, endogenous in MGC803 cells (from UniProt P14635 1-433)”, the binding is reported as “binds”.

From publication PMC8106192
